These are yes or no findings as the source states them, for the method shown. Binding seen in cells or lysates may run through a third protein. For some assays here: Binding can be weak; no strength is given.
Legend:
Experiment in all cases: co-IP; purified proteins: hPEPD, an hPEPD mutant or mSRC at 40 nM incubated with a coagulation factor, FXII or an FXII mutant at 0.5 μM in PBS, 100 μl, 2 h at 37°C; then a specific primary antibody at 4°C overnight, IP by protein G-agarose, IB; both purified
[1] = biological target: human prekallikrein (human)
[2] = biological target: human high molecular weight kininogen (human)
[3] = biological target: human coagulation factor XI (human)
[4] = biological target: human coagulation factor XII (purchased, not His-tagged) (human)

B1: recombinant human prolidase (peptidase D, PEPD) (enzyme, UniProt P12955 1-493)
chain: MAAATGPSFWLGNETLKVPLALFALNRQRLCERLRKNPAVQAGSIVVLQGGEETQRYCTDTGVLFRQESFFHWAFGVTEPGCYGVIDVDTGKSTLFVPRLPASHATWMGKIHSKEHFKEKYAVDDVQYVDEIASVLTSQKPSVLLTLRGVNTDSGSVCREASFDGISKFEVNNTILHPEIVECRVFKTDMELEVLRYTNKISSEAHREVMKAVKVGMKEYELESLFEHYCYSRGGMRHSSYTCICGSGENSAVLHYGHAGAPNDRTIQNGDMCLFDMGGEYYCFASDITCSFPANGKFTADQKAVYEAVLRSSRAVMGAMKPGVWWPDMHRLADRIHLEELAHMGILSGSVDAMVQAHLGAVFMPHGLGHFLGIDVHDVGGYPEGVERIDEPGLRSLRTARHLQPGMVLTVEPGIYFIDHLLDEALADPARASFLNREVLQRFRGFGGVRIEEDVVVTDSGIELLTCVPRTVEEIEACMAGCDKAFTPFSGPK
Question: B1 was tested. Which binding [1] did it give?
Answer: Its binding is “no binding (tested: hPEPD 40 nM, coagulation factor 0.5 μM)”.

Question: And the binding [2]?
Answer: The binding was “no binding (tested: hPEPD 40 nM, coagulation factor 0.5 μM)”.

Question: And the binding [3]?
Answer: The binding was “no binding (tested: hPEPD 40 nM, coagulation factor 0.5 μM)”.

Question: What about the binding [4] of the same binder?
Answer: The binding was “binds”.

B2: 278G>D-hPEPD (enzyme, UniProt P12955 1-493)
chain: MAAATGPSFWLGNETLKVPLALFALNRQRLCERLRKNPAVQAGSIVVLQGGEETQRYCTDTGVLFRQESFFHWAFGVTEPGCYGVIDVDTGKSTLFVPRLPASHATWMGKIHSKEHFKEKYAVDDVQYVDEIASVLTSQKPSVLLTLRGVNTDSGSVCREASFDGISKFEVNNTILHPEIVECRVFKTDMELEVLRYTNKISSEAHREVMKAVKVGMKEYELESLFEHYCYSRGGMRHSSYTCICGSGENSAVLHYGHAGAPNDRTIQNGDMCLFDMDGEYYCFASDITCSFPANGKFTADQKAVYEAVLRSSRAVMGAMKPGVWWPDMHRLADRIHLEELAHMGILSGSVDAMVQAHLGAVFMPHGLGHFLGIDVHDVGGYPEGVERIDEPGLRSLRTARHLQPGMVLTVEPGIYFIDHLLDEALADPARASFLNREVLQRFRGFGGVRIEEDVVVTDSGIELLTCVPRTVEEIEACMAGCDKAFTPFSGPK
Question: For B2, which binding [4] is on record?
Answer: Its binding is “binds”.

B3: 1M-265Rdel-hPEPD (domain or fragment, UniProt P12955 266-493)
chain: TIQNGDMCLFDMGGEYYCFASDITCSFPANGKFTADQKAVYEAVLRSSRAVMGAMKPGVWWPDMHRLADRIHLEELAHMGILSGSVDAMVQAHLGAVFMPHGLGHFLGIDVHDVGGYPEGVERIDEPGLRSLRTARHLQPGMVLTVEPGIYFIDHLLDEALADPARASFLNREVLQRFRGFGGVRIEEDVVVTDSGIELLTCVPRTVEEIEACMAGCDKAFTPFSGPK
Question: With B3 as the binder, how does the binding [4] read?
Answer: Its binding is “binds”.

B4: 185V-493Kdel-hPEPD (domain or fragment, UniProt P12955 1-184)
chain: MAAATGPSFWLGNETLKVPLALFALNRQRLCERLRKNPAVQAGSIVVLQGGEETQRYCTDTGVLFRQESFFHWAFGVTEPGCYGVIDVDTGKSTLFVPRLPASHATWMGKIHSKEHFKEKYAVDDVQYVDEIASVLTSQKPSVLLTLRGVNTDSGSVCREASFDGISKFEVNNTILHPEIVECR
Question: For B4, which binding [4] is on record?
Answer: The binding was “no binding (tested: mutant 40 nM, FXII 0.5 μM)”.

B5: 266T-493Kdel-hPEPD (domain or fragment, UniProt P12955 1-265)
chain: MAAATGPSFWLGNETLKVPLALFALNRQRLCERLRKNPAVQAGSIVVLQGGEETQRYCTDTGVLFRQESFFHWAFGVTEPGCYGVIDVDTGKSTLFVPRLPASHATWMGKIHSKEHFKEKYAVDDVQYVDEIASVLTSQKPSVLLTLRGVNTDSGSVCREASFDGISKFEVNNTILHPEIVECRVFKTDMELEVLRYTNKISSEAHREVMKAVKVGMKEYELESLFEHYCYSRGGMRHSSYTCICGSGENSAVLHYGHAGAPNDR
Question: How did the binding [4] turn out when B5 was run?
Answer: The binding was “no binding (tested: mutant 40 nM, FXII 0.5 μM)”.
